Experimental data taken from the supplement of paper PMC3334620.
In all, about 33,000 sequences were measured (“E-score (-0.5 to 0.5)”: median about -0.0059, highest 2% from about 0.26 on). This is one part of the list.

biological target: T1, Cin5 (UniProt P40917); assay: PBM E-score (8-mer binding enrichment) (E-score (-0.5 to 0.5)); higher = stronger / more preferred TF binding; conditions: protein concentration: 100 nM; construct: GST-full length
T1 sequence: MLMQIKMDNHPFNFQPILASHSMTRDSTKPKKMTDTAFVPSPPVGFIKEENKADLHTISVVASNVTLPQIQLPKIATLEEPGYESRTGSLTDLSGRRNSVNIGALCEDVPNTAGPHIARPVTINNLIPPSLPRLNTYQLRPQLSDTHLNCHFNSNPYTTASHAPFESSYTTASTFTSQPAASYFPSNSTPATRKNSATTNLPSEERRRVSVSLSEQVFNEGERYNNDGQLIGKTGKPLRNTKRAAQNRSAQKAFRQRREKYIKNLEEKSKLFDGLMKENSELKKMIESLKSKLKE
How it was run: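 The E-score, a modified Wilcoxon-Mann-Whitney statistic, was computed by the Universal PBM Analysis Suite for every ungapped eight-base word pooled with its reverse complement. Scans behind it were normalised with masliner after bound GST-tagged yeast transcription factors were detected with fluorescent anti-GST. The proteins, at about 100-200 nM, had been applied to universal all-10-mer Agilent arrays made double-stranded by primer extension.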

Sequence	PBM E-score
CCGTACCC	-0.204
CGCCGCCA	-0.173
AAAACCTA	0.113
GTTTAATA	0.143
ACTGACTA	-0.0429
AAGCCGAA	0.00408
ACCTCTAT	0.0973
ATGGCCTC	-0.0373
AACCGAGC	0.0779
AGCGAGTC	-0.127
AGTGCAAG	0.121
GAGCGCCC	-0.255
CACAATTC	0.192
TACATAAA	0.323
GAGAATGC	0.0997
ACAACGCC	0.0607
TCAATAGA	0.0561
CCCCAAGC	0.138
CGGCCGAG	-0.0567
CCTAGGGA	-0.129
GTGCGATA	0.0251
ACTATGTA	0.202

For convenience, part of the list above.
Sequence	PBM E-score
ACAACGCC	0.0607
TCAATAGA	0.0561
CCCCAAGC	0.138
CGGCCGAG	-0.0567
CCTAGGGA	-0.129
GTGCGATA	0.0251
ACTATGTA	0.202

(next part)

Sequence	PBM E-score
ATGACTTG	0.0388
TCCTCCAA	-0.129
CTGAACTC	-0.0745
ATGACTGC	0.0331
GAGTGTGC	0.0118
ACTCCAAT	-0.0347
GCGTGAAA	0.0212
AATACCCG	0.03
ATCTTCGA	0.122
CTGGCAAA	0.0466
GCCCACGA	-0.116
GAGTAAAA	0.0903
ACTAAATG	0.0519
CAGGAAGC	0.0437
GCGTGCAA	-0.123
AAGCTGGG	-0.015
AGTGCCAC	-0.0861
AAAACCGG	0.121
AGATGTCC	-0.085
CTAAGACC	0.0759
CTCCATAA	-0.17
AAGTGCCG	-0.161

Sequence	PBM E-score
GCTGGACA	-0.0762
AGAGCCAA	-0.115
TGGGACCA	-0.166
AAAAAACC	-0.0523
CTCTTCGA	-0.0303
CCGCGAGG	0.128
AGCGGACG	0.0406
AGTCTCCC	-0.0801
CGCTGAAA	-0.164
AGCTATAT	0.211
GGGCGAGA	-0.0451
TCAATTCA	0.0881
GCCTCCTA	-0.264
CCCTTCCC	-0.22
TAGCCTAA	-0.179
ACTGGTGC	-0.113
GAGGCGGC	-0.107
GTAGGGAC	-0.143
CATATGAG	0.158
GGCAGGAA	-0.124
GTACGGTA	0.0983
ACCAAGAC	0.00964

Sequence	PBM E-score
ATCCGAAA	-0.064
AACTCACG	-0.00371
TAGTGAGA	0.0693
CCTATACG	-0.275
TAGTTCAA	0.0474
AGTGGTCG	-0.0941
GGAGTCCC	-0.155
ATCTAACA	0.0569
ATGGAGCG	-0.0149
GGGAAGGA	-0.137
CGGCGGTA	0.099
GTTATAGA	-0.0531
AAAAAATG	0.197
CCAACGGC	-0.239
CGGATTAG	0.0848
TCCGCAAA	-0.0545
GCGGCTGA	0.042
AACGTCCA	-0.0499
AAGATCTA	-0.12
CCCTATAC	-0.159
CCCGGTGC	-0.189
ATTGGCGG	-0.0494

Sequence	PBM E-score
CGGAAGCA	0.131
ACCCCAAG	0.155
ATCGGACA	-0.0562
GACCTTAC	-0.101
CGTGAATA	0.117
AAGTACCC	-0.088
CATATATC	0.102
ACTCGTAA	0.234
CCTGTTAG	0.0713
ATCTGGCG	-0.0447
GAGGCGGA	-0.27
CCAACAGC	-0.0871
CCAGACAG	-0.153
TGGTGACA	0.059
ATCGCGAT	0.188
CGCTGGTC	-0.282
ATCTCTGG	-0.102
AGGTGTAA	0.149
CAAAGTGC	-0.0856
GATCCTAC	0.125
ACTCCCCT	-0.121
